According to PubChem BioAssay AID1688 (National Center for Advancing Translational Sciences (NCATS), 2009):
Among all 220,000 compounds or so, about 2,400 (1.1%) were called active. Inconclusive means that the source gave no clear call. Such entries were picked first, then a sample of the others. The call rests on the fitted dose curve; in most records, active means well fitted inhibition curve with a large enough effect; inconclusive means small, poorly fitted or top-dose-only effect, or effect the other way; inactive means no such curve, though single readings can be large or run the other way. Potencies of inconclusive entries are doubtful fits and often do not repeat.

assay: qHTS Multiplex Assay to Identify Dual Action Probes in a Cell Model of Huntington: Aggregate Formation (GFP); settings: PC12 HttQ103-GFP aggregates, Acumen cytometry, 40 h; activity change, negative = inhibition: at 46.1 µM (top of the series) unless noted; further: nearly all actives have a fitted effect of over 60% in size
Procedure, shortened: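 Quantitative HTS on tebufenozide-induced (100 nM) PC12 cells stably expressing polyQ103 Huntingtin exon 1–GFP. Reduction of bright GFP aggregates, detected by laser scanning cytometry after lysis, identified actives across the titration.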
On the % scale 0 is the no-effect control and ±100 the full control effect; potency means the concentration at half of the fitted maximal effect.

Compound | Potency | activity change, negative = inhibition
COc1cc(/C=C/C(=O)O)cc(S(=O)(=O)N(CC(C)C)CC(C)C)c1OC | inconclusive: 22.4 µM [activator, partial curve] | 
COc1ccc(Cl)cc1NC(=O)c1cnc2sccn2c1=O | inconclusive: 22.4 µM [inhibitor, single point] | 
O=C(c1cc2nc(-c3ccc(F)cc3)cc(C(F)(F)F)n2n1)N1CCCC1 | inactive | 
O=C(Nc1ccccc1F)c1ccc(-n2cncn2)nc1 | inconclusive: 11.2 µM [inhibitor, partial curve] | 
O=[N+]([O-])c1ccc(Oc2cnc3ccccc3n2)cc1 | inconclusive: 1.12 µM [inhibitor, full curve] | 
CC(C)(C)OC(=O)N1CCC(C(=O)N2CCCCCC2)CC1 | inactive | 
O=C(c1ccc(Cl)cc1)C1C2C(=O)N(c3ccccc3)C(=O)C2C2CCCN21 (stereo not given) | inconclusive: 1.78 µM [activator, partial curve] | 
CCCN1C2=C(C(=O)CC(C)(C)C2)C(c2ccc(F)cc2)C2=C1c1ccccc1C2=O (stereo not given) | inconclusive: 3.16 µM [inhibitor, partial curve] | 
Cc1ccc(NC(=S)NC(=O)c2c(-c3ccccc3Cl)noc2C)cc1 | inactive | 
COc1ccc(/C=C/C=C2\NC(=S)NC2=O)cc1 | inactive | 
COc1ccc(CN2CN(S(=O)(=O)c3cccs3)c3nc4ccccc4nc32)cc1 |  | inactive: 20.1% [at 9.22 µM]
CCC(CC)COC(=O)C(C#N)c1nc2ccccc2nc1N1CCN(CC)CC1 (stereo not given) | inconclusive: 28.2 µM [inhibitor, single point] | 
COCCCNCCCCOc1ccc(C)cc1[N+](=O)[O-] | inconclusive: 12.6 µM [inhibitor, single point] | 
Cc1ccc(S(=O)(=O)N(C)c2ccccc2C(=O)NC2CCCC2)cc1 | inactive | 
COc1cnn(-c2ccc(Br)cc2)c(=O)c1SCc1ccccc1 | inconclusive: 22.4 µM [inhibitor, partial curve] | 
CCOc1ccc(N/C(SCc2cccc([N+](=O)[O-])c2)=C(/C#N)C(N)=O)cc1 | inconclusive: 15.8 µM [inhibitor, single point] | 
CCOC(=O)c1c(C)[nH]c(C2=NNC(=Nc3ccccc3OC)SC2)c1C | inconclusive: 35.5 µM [inhibitor, single point] | 
Cc1ccc(NC(=O)c2sc3nc4c(c(-c5ccco5)c3c2N)CCC4)cc1 | inactive | 
CS(=O)(=O)Nc1ccc(C(=O)Nc2ccc(S(=O)(=O)N3CCCC3)cc2)cc1 | inactive | 
CC(C)N1C(=O)S/C(=C/c2ccc(Sc3nc4ccccc4[nH]3)o2)C1=O | inconclusive: 15.8 µM [inhibitor, single point] | 
Cn1c(Cn2nnc3ccccc32)nnc1SCC(=O)c1ccccc1F | inconclusive: 17.8 µM [activator, single point] | 
CCCCC(=O)NCCNC(=O)c1cc(OCC(F)(F)F)ccc1OCC(F)(F)F | inconclusive: 1.78 µM [inhibitor, partial curve] | 
Cn1c(=O)c2c3c(sc2n2cnnc12)CCC3 | inactive | 

Random excerpt: 2 compounds from above, in no set order.
Compound | Potency | activity change, negative = inhibition
CCOC(=O)c1c(C)[nH]c(C2=NNC(=Nc3ccccc3OC)SC2)c1C | inconclusive: 35.5 µM [inhibitor, single point] | 
O=[N+]([O-])c1ccc(Oc2cnc3ccccc3n2)cc1 | inconclusive: 1.12 µM [inhibitor, full curve] | 

Additional entries:

Compound | Potency | activity change, negative = inhibition
Cc1cc(C(=O)CSc2nnc(NCc3ccccc3)s2)c(C)n1C | inactive | 
CC(C)c1ccc(OCC(=O)Nc2cccc(C(=O)Nc3ccccc3C(=O)O)c2)cc1 | inactive | 
Cc1ccc(S(=O)(=O)NCCCCCC(=O)Nc2ccccc2)cc1 | inactive | 
Cc1cc(C)c(C(=O)COC(=O)c2cc([N+](=O)[O-])ccc2NCCO)cc1C | active: 0.0141 µM | 
COc1ccc2oc(=O)c(-c3csc(Nc4ccc(O)cc4)n3)cc2c1 | inconclusive: 3.16 µM [activator, single point] | 
O=C(c1nn2c(C(F)(F)F)cc(-c3ccco3)nc2c1Br)N1CCCc2ccccc21 | inconclusive: 1.26 µM [inhibitor, single point] | 
CCc1ccc(NC(=O)Cn2c(=O)oc3cc(S(=O)(=O)N4CCOCC4)ccc32)cc1 | inconclusive: 22.4 µM [inhibitor, partial curve] | 
CCn1c(CCNC(=O)c2ccc(F)cc2)nc2ccccc21 | inconclusive: 22.4 µM [inhibitor, single point] | 
O=C(CCl)Nc1cc2[nH]c(=O)[nH]c2cc1Br | inconclusive: 15.8 µM [inhibitor, single point] | 
O=C(NCCN1C(=O)S/C(=C\c2ccc(Cl)c(Cl)c2)C1=O)C1COc2ccccc2O1 (stereo not given) | inconclusive: 35.5 µM [inhibitor, single point] | 
CCn1c(=O)n(CCc2ccccc2)c(=O)c2c3c(sc21)CCCC3 | inconclusive: 1.26 µM [inhibitor, partial curve, poor fit] | 
COCCCn1cnnc1SCC(=O)Nc1ccc(S(=O)(=O)N2CCCC2)cc1 |  | inactive: -9.33% [at 9.22 µM]
COC(=O)C1C2C=CC3(CN(CCc4ccccc4)C(=O)C13)O2 (stereo not given) | inactive | 
COc1ccc2c(c1)nc(SCC(=O)c1ccc(Br)s1)n2C | inactive | 
CCCCCCCC1CC(CSC(=N)N)OC1=O (stereo not given) | inconclusive: 20 µM [activator, single point] | 
COc1ccc(C(=O)NC(=O)N2CCCCC2)cc1 | inconclusive: 0.562 µM [inhibitor, partial curve, poor fit] | 
COc1cccc(-c2nc(NC(C)C)c3ccccc3n2)c1O | inconclusive: 20 µM [inhibitor, single point] | 
Cc1ccc(S(=O)(=O)N2CCOCC2)cc1NC(=O)COC(=O)Cc1ccsc1 | inconclusive: 5.62 µM [inhibitor, single point] | 
O=C(Nc1nc2ccccc2n1CCN1CCOCC1)c1ccc(COc2ccccc2Br)o1 | inconclusive: 11.2 µM [inhibitor, single point] | 
CC(C)(C)c1ccc(C(CC(=O)O)NC(=O)Cc2ccc(F)cc2)cc1 (stereo not given) | inactive | 
Cc1c(C(=O)Nc2ccc(F)cc2)oc2ccc(S(=O)(=O)N3CC(C)CC(C)C3)cc12 (stereo not given) | inconclusive: 14.1 µM [inhibitor, single point] | 
COc1cc(-c2nnc(SCC3(c4ccccc4)OCCO3)o2)cc(OC)c1OC | inconclusive: 35.5 µM [inhibitor, single point] | 
